Experimental data published in PMC12470154 (International Journal of Molecular Sciences, 2025).

Assay: peptide made by a vendor
Conditions: whole synthesis, HPLC

Row | Sequence | purity (crude or final not stated) [%]
1 | VVVHINGGKFGGGGSRQIKIWFQNRRMKWKK | 98.03
2 | RKKRRQRRRGGGGVVVHINGGKFGGGGSRQIKIWFQNRRMKWKK | 98.3
3 | VTDFGVFVEIGGGGSRQIKIWFQNRRMKWKK | 94.52
4 | RKKRRQRRRGGGGVTDFGVFVEI | 98.9
5 | RKKRRQRRRGGGGITDFGIFIGLGGGGSRQIKIWFQNRRMKWKK | 94.54
6 | RKKRRQRRRGGGGITDFGIFIGL | 99.6

End groups of sequences in plain letters are not given here.
